Assay results taken from patent US12247246B2, “Identification of inhibitors of TcpC and TIR NADase activity” (Washington University, priority 2017, dated 2025).

Sequences of proteins named here, by UniProt entry; tags and fusion partners are left off. Residues count along the entry.
UniProt A0A0H2V8B5, 169-303 limits assumed: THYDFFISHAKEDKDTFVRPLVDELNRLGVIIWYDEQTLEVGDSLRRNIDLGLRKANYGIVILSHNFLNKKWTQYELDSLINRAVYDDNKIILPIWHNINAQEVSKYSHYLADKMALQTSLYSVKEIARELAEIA

Biological target: TcpC TIR (Escherichia coli O6:H1, UniProt A0A0H2V8B5)
Type: biochemical, uropathogenic Escherichia coli
Details: Pharmakon library screen, 25 μM compound, 10 μM NAD, 37° C. 60 min; hits retested for dose dependent inhibition
Procedure: NRK1-HEK293T cells were seeded onto 150 cm2 plates at 20×10^6 cells per plate. […] Forty-eight hours after transfection, cells were harvested, pelleted by centrifugation at 1,000 rpm (Sorvall ST 16R centrifuge, Thermo Fisher), and washed once with cold PBS (0.01 M phosphate buffered saline NaCl 0.138 M; KCl 0.0027 M; pH 7.4). The cells were resuspended in PBS with protease inhibitors (Complete protease inhibitor cocktail, Roche product #11873580001) and cell lysates were prepared by sonication (Branson Sonifer 450, output=3, 20 episodes of stroke). […] Protein concentration was determined by the Bicinchoninic (BCA) method and used to normalize lysate concentrations.
The reaction was incubated at 37° C. for 60 min, and then stopped by addition of 180 μl of 0.55 M perchloric acid (HClO4) and placed on ice. After 10 min on ice, the reaction plates were centrifuged for 10 min at 4,000 rpm (Sorvall ST 16R centrifuge). The supernatant (120 μl) was transferred to a new plate and 10 μl of 3M K2CO3 was added to neutralize the solution. Precipitated salts were removed by centrifugation 10 min at 4,000 rpm (Sorvall ST 16R centrifuge). […] This ratio was compared to the ratio generated in the absence of compound inhibitors.
Positive hits were individually purchased from Sigma and tested its dose dependent inhibition in conditions described above. […]

CCCCCCCCCCCCCCCC[n+]1ccccc1 [cetylpyridium, Cetylpyridinium]
inhibitor of TcpC TIR NADase activity (screen hit, NAD/ADPR ratio >2): inhibitors
